Measured data: PubChem BioAssay AID1259281 (Sanger Institute, 2017)
This is one part, drawn at random, of 794 reagents tested. 22 of all reagents (2.8%) count as active. 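Calls rest on knock-down alone only; drug synergy scores play no part in them.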 No viability above 1 is reported: the scale is capped. Not all columns of the deposit are shown. The record does not give: the amount of reagent, the time to read-out.

Test: 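Screen kinases and frequently colorectal-mutated genes for lethal knock-downs and drug partners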 (primary screen)
Cells: human COLO678 colorectal cancer cell line
Reagent: siRNA pool against human genes
Treatment: anchor drugs at fixed doses: BYL719 1 µM, cetuximab 5 µg/ml or trametinib 10 nM; DMSO vehicle for the siRNA-alone arm
Read-out: 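Surviving cells scaled to non-targeting siRNA control as replicate means; robust z-score for knock-down alone; synergy scores weigh knock-down with drug against the predicted combined effect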
Scale: robust z-score, siRNA alone: higher = more viable cells; strongly negative means essential; viability, siRNA alone: higher = more surviving cells; synergy score with BYL719: higher = stronger synergistic killing with drug
Rule for the call: 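Essential (knock-down alone) when the siRNA-alone robust z-score is below -3; otherwise no change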
Meaning of the calls: active = essential (knock-down alone); inactive = no change

no.	target	robust z-score, siRNA alone	viability, siRNA alone (fraction of control)	synergy score with BYL719	Call
1	PDK3 (pyruvate dehydrogenase kinase 3)	-3.02	0.889	-0.0299	active
2	PRKAG2 (protein kinase AMP-activated non-catalytic subunit gamma 2)	0.253	0.993	-0.0982	inactive
3	DLG2 (discs large MAGUK scaffold protein 2)	0.473	1	0.0313	inactive
4	ADCK2 (aarF domain containing kinase 2)	0.106	0.988	0.0823	inactive
5	BRD3 (bromodomain containing 3)	0.473	1	-0.00681	inactive
6	HIPK4 (homeodomain interacting protein kinase 4)	0.473	1	-0.0919	inactive
7	ERN2 (endoplasmic reticulum to nucleus signaling 2)	0.234	0.992	-0.0378	inactive
8	MST1R (macrophage stimulating 1 receptor)	0.473	1	-0.0385	inactive
9	EEF2K (eukaryotic elongation factor 2 kinase)	-0.308	0.975	0.121	inactive
10	TJP2 (tight junction protein 2)	0.473	1	-0.0919	inactive
11	DLG4 (discs large MAGUK scaffold protein 4)	-0.153	0.98	-0.0334	inactive
12	TRPM7	-1.5	0.937	-0.0986	inactive
13	PKDCC (protein kinase domain containing, cytoplasmic)	0.473	1	0.00373	inactive
14	SKAP1 (src kinase associated phosphoprotein 1)	0.473	1	-0.0919	inactive
15	PTPRU (protein tyrosine phosphatase receptor type U)	0.473	1	0.0155	inactive
16	SCYL1 (SCY1 like pseudokinase 1)	0.473	1	-0.0919	inactive
17	NR2F2 (nuclear receptor subfamily 2 group F member 2)	0.473	1	0.136	inactive
18	MAP3K19 (mitogen-activated protein kinase kinase kinase 19)	-2.18	0.916	0.0714	inactive
19	MKNK2 (MAPK interacting serine/threonine kinase 2)	-1.47	0.938	0.0863	inactive
20	ULK4 (unc-51 like kinase 4)	-0.0328	0.984	0.101	inactive
21	NTRK2 (neurotrophic receptor tyrosine kinase 2)	-2.36	0.91	-0.0922	inactive
22	STK32A (serine/threonine kinase 32A)	0.473	1	-0.0919	inactive
23	BRSK2 (BR serine/threonine kinase 2)	0.473	1	-0.0689	inactive
24	TAOK2 (TAO kinase 2)	0.473	1	-0.0415	inactive
25	PRKCG (protein kinase C gamma)	0.473	1	0.0142	inactive
26	RELA (RELA proto-oncogene, NF-kB subunit)	-0.89	0.957	-0.00705	inactive
27	ACVR2B (activin A receptor type 2B)	0.365	0.997	0.0155	inactive
28	DGKK (diacylglycerol kinase kappa)	-1.56	0.935	-0.125	inactive
29	TRPM6	0.473	1	0.04	inactive
30	MLKL (mixed lineage kinase domain like pseudokinase)	-2.2	0.915	-0.169	inactive
31	CLSPN (claspin)	0.473	1	0.0284	inactive
32	MED24 (mediator complex subunit 24)	-0.384	0.973	0.0488	inactive
33	EXOSC10 (exosome component 10)	-0.861	0.958	-0.0545	inactive
34	TSSK4 (testis specific serine kinase 4)	-0.287	0.976	0.0558	inactive
35	RIOK1 (RIO kinase 1)	0.473	1	0.0703	inactive
36	PACSIN1 (protein kinase C and casein kinase substrate in neurons 1)	0.473	1	-0.0919	inactive
37	PKN1 (protein kinase N1)	0.473	1	-0.0108	inactive
38	STRADB (STE20 related adaptor beta)	0.473	1	-0.0918	inactive
39	MAP3K1 (mitogen-activated protein kinase kinase kinase 1)	0.473	1	-0.0919	inactive
40	AURKB (aurora kinase B)	0.116	0.989	0.0373	inactive
41	SRMS	-1.34	0.942	-0.144	inactive
42	ETNK2 (ethanolamine kinase 2)	-1.6	0.934	0.0254	inactive
43	PRKG1 (protein kinase cGMP-dependent 1)	0.473	1	-0.07	inactive
44	MYO3B (myosin IIIB)	0.473	1	0.141	inactive
45	ELP1 (elongator acetyltransferase complex subunit 1)	0.473	1	-0.0522	inactive
46	PRKD3 (protein kinase D3)	0.458	1	0.104	inactive
47	CDKL3 (cyclin dependent kinase like 3)	0.473	1	-0.0919	inactive
48	ITPKA (inositol-trisphosphate 3-kinase A)	0.473	1	-0.0919	inactive
49	NME4 (NME/NM23 nucleoside diphosphate kinase 4)	0.473	1	-0.00547	inactive
50	CDKL1 (cyclin dependent kinase like 1)	0.473	1	-0.0395	inactive
